From paper PMC7029138, “Modulation of Symbiotic Compatibility by Rhizobial Zinc Starvation Machinery”
The exact form of at least one protein or probe is not confirmed. A weaker result is weaker than the reference pair of the same experiment. Tags and fusion partners may be left off the protein sequences shown.

Target: T1, Zur (His6-Zur) (Sinorhizobium fredii CCBAU45436) (UniProt C3MDK7)
T1 sequence (looked up, limits assumed): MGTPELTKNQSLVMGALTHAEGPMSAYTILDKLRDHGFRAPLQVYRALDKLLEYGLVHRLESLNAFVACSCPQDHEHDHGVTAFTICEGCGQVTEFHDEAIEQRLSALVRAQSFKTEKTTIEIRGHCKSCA
Assay: EMSA
Conditions: 200 uM ZnSO4 + 50 uM TPEN; 10 mM Tris pH 7.5, 50 mM KCl, 1 mM DTT, 1 ug poly(dI-dC), 200 uM ZnSO4, with or without 50 uM TPEN, ~50 fmol probe in 15 ul, 25 C 20 min; 5% native PAGE in TB at 4 C; recombinant protein; protein details: N-terminal His6 (pET-28a(+), BamHI/HindIII)

Sequence: GCGACTGCGTCGTGTAATGTTATTACATCAATTGCGTTATGCTATAACGTGTGCAATAGC (double strand) [znuA promoter Zur box probe]
- binding result: binds more weakly
